Results: article PMC4172637
No constants are given. Whether binding was seen depends on the method and setting. In cells and extracts the contact can be indirect. Some entries that bind do so weakly or less than the wild type. For some of these results: Tags and fused reporters may be left off the sequences shown.

Protein sequences, listed by entry. Tags and fused reporters are not part of them.
UniProt Q24572: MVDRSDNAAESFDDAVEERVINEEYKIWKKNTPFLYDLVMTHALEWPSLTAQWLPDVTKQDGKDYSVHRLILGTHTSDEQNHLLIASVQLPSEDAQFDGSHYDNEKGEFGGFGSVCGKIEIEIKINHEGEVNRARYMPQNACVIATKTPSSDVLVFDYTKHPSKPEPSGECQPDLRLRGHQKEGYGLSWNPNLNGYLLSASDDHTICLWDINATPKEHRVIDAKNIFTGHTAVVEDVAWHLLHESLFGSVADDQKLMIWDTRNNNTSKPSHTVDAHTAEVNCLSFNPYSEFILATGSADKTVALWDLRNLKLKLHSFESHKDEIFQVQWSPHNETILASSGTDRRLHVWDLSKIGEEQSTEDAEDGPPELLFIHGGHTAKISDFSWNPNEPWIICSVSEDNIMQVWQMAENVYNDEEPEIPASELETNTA
UniProt Q24368: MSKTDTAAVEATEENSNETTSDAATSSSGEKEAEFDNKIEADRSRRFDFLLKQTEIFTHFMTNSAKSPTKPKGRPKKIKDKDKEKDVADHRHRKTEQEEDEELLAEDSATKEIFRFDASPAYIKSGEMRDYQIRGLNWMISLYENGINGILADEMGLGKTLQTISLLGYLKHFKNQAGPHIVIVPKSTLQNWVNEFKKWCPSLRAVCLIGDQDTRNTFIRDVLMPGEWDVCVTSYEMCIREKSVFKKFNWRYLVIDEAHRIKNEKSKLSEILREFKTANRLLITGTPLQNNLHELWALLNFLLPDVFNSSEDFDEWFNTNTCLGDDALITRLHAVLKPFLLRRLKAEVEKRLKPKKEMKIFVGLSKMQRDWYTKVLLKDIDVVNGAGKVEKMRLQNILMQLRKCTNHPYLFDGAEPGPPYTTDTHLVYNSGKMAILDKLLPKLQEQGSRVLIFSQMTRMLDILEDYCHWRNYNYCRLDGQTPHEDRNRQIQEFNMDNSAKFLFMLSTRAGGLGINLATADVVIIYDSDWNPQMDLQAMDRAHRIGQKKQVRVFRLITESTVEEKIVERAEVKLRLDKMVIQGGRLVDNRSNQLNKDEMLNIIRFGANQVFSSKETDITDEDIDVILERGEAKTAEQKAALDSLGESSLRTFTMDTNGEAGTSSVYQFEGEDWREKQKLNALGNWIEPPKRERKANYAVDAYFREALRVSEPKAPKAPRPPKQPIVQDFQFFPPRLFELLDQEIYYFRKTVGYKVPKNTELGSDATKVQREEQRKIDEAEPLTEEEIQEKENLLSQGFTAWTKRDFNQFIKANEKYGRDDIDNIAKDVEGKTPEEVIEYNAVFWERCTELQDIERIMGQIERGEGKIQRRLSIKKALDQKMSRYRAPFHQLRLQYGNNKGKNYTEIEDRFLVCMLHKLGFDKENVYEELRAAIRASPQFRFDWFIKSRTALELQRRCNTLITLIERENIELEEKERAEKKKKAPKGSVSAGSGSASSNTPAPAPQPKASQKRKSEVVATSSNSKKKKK
UniProt P04197: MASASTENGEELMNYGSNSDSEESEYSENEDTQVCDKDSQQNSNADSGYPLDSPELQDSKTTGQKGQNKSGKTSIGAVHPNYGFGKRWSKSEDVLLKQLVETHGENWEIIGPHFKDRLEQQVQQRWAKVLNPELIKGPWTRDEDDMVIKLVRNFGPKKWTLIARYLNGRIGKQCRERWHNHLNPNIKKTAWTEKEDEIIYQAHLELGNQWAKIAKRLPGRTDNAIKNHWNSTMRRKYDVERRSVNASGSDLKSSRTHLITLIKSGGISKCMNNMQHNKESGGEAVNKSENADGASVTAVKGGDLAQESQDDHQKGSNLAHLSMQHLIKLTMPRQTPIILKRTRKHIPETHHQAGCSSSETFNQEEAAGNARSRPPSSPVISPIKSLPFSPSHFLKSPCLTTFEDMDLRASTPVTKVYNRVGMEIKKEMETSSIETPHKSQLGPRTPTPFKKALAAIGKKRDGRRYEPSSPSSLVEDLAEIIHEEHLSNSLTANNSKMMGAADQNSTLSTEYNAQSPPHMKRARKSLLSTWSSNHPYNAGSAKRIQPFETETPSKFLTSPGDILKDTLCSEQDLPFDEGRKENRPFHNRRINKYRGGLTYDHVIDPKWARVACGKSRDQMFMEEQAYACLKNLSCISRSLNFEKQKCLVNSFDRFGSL

T1: Centrosomal protein 190 (endogenous) (Drosophila (endogenous in S2 cells)) (UniProt Q24478)
T1 sequence: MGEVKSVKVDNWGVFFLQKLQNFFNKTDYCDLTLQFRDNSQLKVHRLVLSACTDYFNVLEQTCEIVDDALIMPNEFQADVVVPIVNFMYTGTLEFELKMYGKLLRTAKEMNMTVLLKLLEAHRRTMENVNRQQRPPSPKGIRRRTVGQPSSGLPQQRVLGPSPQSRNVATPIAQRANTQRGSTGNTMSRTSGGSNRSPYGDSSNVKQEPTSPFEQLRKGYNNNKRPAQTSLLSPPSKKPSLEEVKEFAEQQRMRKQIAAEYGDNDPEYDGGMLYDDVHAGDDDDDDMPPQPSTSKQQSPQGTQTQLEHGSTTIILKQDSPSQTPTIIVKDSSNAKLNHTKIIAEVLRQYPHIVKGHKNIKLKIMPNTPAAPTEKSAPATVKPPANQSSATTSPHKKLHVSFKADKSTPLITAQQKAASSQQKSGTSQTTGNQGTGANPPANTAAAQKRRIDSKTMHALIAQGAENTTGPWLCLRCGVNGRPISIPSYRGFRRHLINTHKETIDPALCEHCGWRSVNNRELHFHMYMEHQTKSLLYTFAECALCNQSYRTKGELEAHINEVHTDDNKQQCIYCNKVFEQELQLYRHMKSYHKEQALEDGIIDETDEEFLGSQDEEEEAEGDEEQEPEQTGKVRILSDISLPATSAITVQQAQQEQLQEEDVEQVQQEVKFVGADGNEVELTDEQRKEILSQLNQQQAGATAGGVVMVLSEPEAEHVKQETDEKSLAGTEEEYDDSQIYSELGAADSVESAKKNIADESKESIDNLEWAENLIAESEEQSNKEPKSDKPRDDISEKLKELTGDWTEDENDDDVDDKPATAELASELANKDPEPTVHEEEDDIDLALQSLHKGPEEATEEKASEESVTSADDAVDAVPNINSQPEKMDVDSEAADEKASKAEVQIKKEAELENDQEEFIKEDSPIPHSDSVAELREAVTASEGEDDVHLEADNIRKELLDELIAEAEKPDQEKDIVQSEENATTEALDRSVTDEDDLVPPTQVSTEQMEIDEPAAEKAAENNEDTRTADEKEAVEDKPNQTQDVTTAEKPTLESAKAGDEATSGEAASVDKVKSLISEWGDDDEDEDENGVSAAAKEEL

T2: dCTCF (endogenous) (Drosophila (endogenous in S2 cells)) (UniProt Q9VS55)
T2 sequence: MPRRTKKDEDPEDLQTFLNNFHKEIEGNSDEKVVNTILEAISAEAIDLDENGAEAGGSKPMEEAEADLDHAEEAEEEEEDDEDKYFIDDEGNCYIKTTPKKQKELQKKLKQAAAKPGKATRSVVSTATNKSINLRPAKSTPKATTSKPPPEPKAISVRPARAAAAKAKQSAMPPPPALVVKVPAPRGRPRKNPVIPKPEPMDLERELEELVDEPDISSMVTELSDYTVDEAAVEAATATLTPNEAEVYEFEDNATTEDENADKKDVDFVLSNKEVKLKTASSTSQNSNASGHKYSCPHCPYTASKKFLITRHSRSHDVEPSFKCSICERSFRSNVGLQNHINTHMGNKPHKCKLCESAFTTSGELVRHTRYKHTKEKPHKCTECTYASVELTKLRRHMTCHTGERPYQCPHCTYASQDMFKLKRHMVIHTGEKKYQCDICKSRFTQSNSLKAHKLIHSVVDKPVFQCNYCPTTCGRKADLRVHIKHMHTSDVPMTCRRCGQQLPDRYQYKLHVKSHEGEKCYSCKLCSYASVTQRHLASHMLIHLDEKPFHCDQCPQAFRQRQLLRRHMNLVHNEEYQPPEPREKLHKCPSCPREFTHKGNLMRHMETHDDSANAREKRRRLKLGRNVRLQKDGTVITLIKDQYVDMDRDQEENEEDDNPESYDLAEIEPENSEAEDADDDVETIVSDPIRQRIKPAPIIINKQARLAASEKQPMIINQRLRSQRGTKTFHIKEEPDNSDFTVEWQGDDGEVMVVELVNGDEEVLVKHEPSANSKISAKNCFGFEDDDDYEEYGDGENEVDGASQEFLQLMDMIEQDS

T3: FLAG-CP190 (Drosophila) (UniProt Q24478)
T3 sequence: T1 sequence

T4: FLAG-dCTCF (Drosophila) (UniProt Q9VS55)
T4 sequence: T2 sequence

B1: Mip120 (protein, UniProt A1Z9E2 1-950)
chain: MDTSGGNLDSLDDTEPLPELSFEDFLEPTSEKSSQHMEIEALDSEEDNIGGEDLADPANDSLNTPQFKKNVVHILEDKRLNSSGLTVLKSHAIKMVTAGGTPPAKAQVTDVKILNKLKPIPSSTLKIGSTTIATKSTPGSITKTLGNLTQIRTKDGQVIFVQKSVPGTQSSTAVTGSPSGGIRRLVAPSGIQKAVLSKGVTMASTGLVKAAVPAKASTSVPGSAITLKGIQPLAGGTAKASTSSTTATTSPSLAQPNKIQVVRTADGKIIKINQAGPSLLVNAKQGTGTTVTPGGSAATSVKLSPSTGNVVLNKPVGQVVVRTETPVKTATGSVASASATPGKMLVQSGGKQILVSNKNIIKLSPNASATSSTTHTTGGQTPSTSSGLHAIQLPGKGGIQYVRVLNNNKSAAGTSATASIPKTVQTQKITVVRPPAATGVPATSTTTSAAAASPAAASKANLAMGNTNKIVMRSMGGSIVPLPSVQTLVSKRALGAISNASKPASAASSSATPSASQELPRKHRLTDLNVQLKQSASVSSEASDSSDAGPEAKKPRYVITMQQGSQKAASQPVQKLINRTANVQRVVSSSTSPSSNSTKKIYNYVQPTGSNGAKYMICNSGVPQSSTSAMRRGYTGYVENKTRRPPPISPQQHRFKQMGPQQQSKHQQLQAQAKQRIRQQQLPTEQSTPIKVEPKLPTLPPGVKANVPAKPLFEVLKPPATAAAAGAVDPLGGMTSRRKHCNCSKSQCLKLYCDCFANGEFCQDCTCKDCFNNLDYEVERERAIRSCLDRNPSAFKPKITAPNSGDMRLHNKGCNCKRSGCLKNYCECYEAKIPCSSICKCVGCRNMEDRPDVDMDSLDGLMGVEGQKKDKAKNKQLNENRANIYFTDDVIEATIMCMISRIVMHEKQNVAVEDMEREVMEEMGESLTQIIAFAKEKQETSQIDESKPSS

What was measured:
[1] = biological target: T1, Centrosomal protein 190 (endogenous) (Drosophila (endogenous in S2 cells)); experiment: co-IP; endogenous: nuclear extract of wildtype S2 cells precipitated with CP190 or dCTCF specific antibodies; Western blot; mouse IgG as control
[2] = biological target: T2, dCTCF (endogenous) (Drosophila (endogenous in S2 cells)); experiment: as above
[3] = biological target: T3, FLAG-CP190 (Drosophila); experiment: co-IP; FLAG-M2 antibody precipitation from nuclear extract of S2 cells stably expressing FLAG-CP190 or FLAG-dCTCF; washes 20 mM Tris-HCl pH 7.5, 100 mM NaCl, 0.25% NP-40; Western blot; untransfected S2 cells as negative control
[4] = biological target: T4, FLAG-dCTCF (Drosophila); experiment: as above

Row | Molecule | binding [1] | binding [2] | binding [3] | binding [4]
1 | CAF-1/p55 (from UniProt Q24572 1-430) | binds | binds | binds | binds
2 | ISWI (from UniProt Q24368 1-1027) | binds | binds | binds | binds
3 | Myb (from UniProt P04197 1-657) | binds weakly | binds weakly | binds | binds
4 | B1 | binds | binds | binds | binds
